{
  "source": "PubChem BioAssay AID445",
  "about": "(National Center for Advancing Translational Sciences (NCATS), 2006)",
  "note": "Some of the results follow. Further columns of the screen follow, without active or inactive calls. Compounds called inactive in the main read-out are mostly missing here. Potencies come from curve fits of mixed quality, noted in brackets.",
  "data": [
    {"assay": "IkB Signaling", "details": "ABC-DLBCL IkBa-CBG/CBR dual luciferase ratio (green luciferase fused to IkBa over red control in OCI-Ly3 lymphoma cells), 4 h; measured here: control luc red channel unless noted", "summary_of_the_method": "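Curves were fitted separately to fusion (green), unfused (red) and ratio luminescence, then classed by r2, magnitude and activity. Cells: OCI-Ly3, 4 h compound plus doxycycline at 37C; 10 uM MG-132 defined full response.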", "values": [
      {"smiles": "Cc1ccc(SCCNC(=O)CN(c2cccc(C)c2C)S(C)(=O)=O)cc1", "AC50": "12.6 µM [falling, partial curve]"},
      {"smiles": "Cc1cc(Oc2ccc(-c3ccccc3)cc2)n2ncnc2n1", "AC50": "6.31 µM [falling, partial curve]"},
      {"smiles": "CC(C)(C)c1cc(C(c2cccnc2)N2CCN(CCO)CC2)cc(C(C)(C)C)c1O", "note": "(centres undefined)", "AC50": "25.1 µM [falling, single point]"},
      {"smiles": "CCOC(=O)c1c(C)oc2nc(C)nc(NCCc3ccc(OCC)cc3)c12", "AC50": "15.8 µM [falling, partial curve]"},
      {"smiles": "O=C(Nc1ccc(-n2nncc2-c2ccco2)cc1)c1ccc(F)cc1", "AC50": "20 µM [falling, partial curve]"},
      {"smiles": "N#CC1=C(N)NC(SCC(=O)Nc2ccccc2)=C(C#N)C12CCCC2", "AC50": "10 µM [falling, partial curve]"},
      {"smiles": "O=S(=O)(c1ccccc1)N1CCN(c2cc(-c3ccccc3)nc3ncnn23)CC1", "AC50": "25.1 µM [rising, single point] [measured here: IkB-luc green channel]"},
      {"smiles": "CCC(C)NC(=O)Cn1c(=O)n(-c2cc(OC)cc(OC)c2)c(=O)c2ccccc21", "note": "(centres undefined)", "AC50": "39.8 µM [falling, partial curve, poor fit]"},
      {"smiles": "Cc1ccc(-n2ncc(C(=O)NCc3cccs3)c2C2CCN(C(=O)OC(C)(C)C)CC2)cc1C", "AC50": "15.8 µM [falling, partial curve]"},
      {"smiles": "Cc1c(C(=O)OCCOc2ccccc2)[nH]c2c1C(=O)CCC2", "AC50": "12.6 µM [falling, partial curve]"},
      {"smiles": "Cc1cccc(Cn2c(CNS(=O)(=O)c3ccc(Cl)s3)nc3cccnc32)c1", "AC50": "39.8 µM [falling, single point]"},
      {"smiles": "CC(C)CN(CCNC(=O)c1cc(=O)[nH]c2ccc(S(=O)(=O)N3CCCCCC3)cc12)CC(C)C", "AC50": "7.94 µM [rising, partial curve]"},
      {"smiles": "Cn1c(=O)oc2cc(S(=O)(=O)NCCC(=O)Nc3ccc(F)c(Cl)c3)ccc21", "AC50": "15.8 µM [falling, partial curve]"},
      {"smiles": "CCOc1ccc(NC(=O)CCCN2C(=O)C(c3ccccc3)Oc3cccnc32)cc1", "note": "(centres undefined)", "AC50": "0.2 µM [rising, full curve]"},
      {"smiles": "CS(=O)(=O)c1ncc(N(Cc2ccccc2)Cc2ccco2)c(C(=O)Nc2cccc(C(F)(F)F)c2)n1", "AC50": "3.16 µM [falling, partial curve]"},
      {"smiles": "CCOC(=O)c1c(NC(=O)c2cc(-c3ccccc3)on2)sc2c1CCCC2", "AC50": "12.6 µM [falling, partial curve]"},
      {"smiles": "O=C(NCCc1ccc(Cl)cc1)c1ccc2nc(Cc3ccccc3)oc2c1", "AC50": "0.794 µM [falling, full curve]"},
      {"smiles": "Cc1cc(C)c(NC(=O)CSc2nc(=O)n(Cc3ccco3)c3c2CCC3)c(C)c1", "AC50": "3.16 µM [falling, partial curve]"},
      {"smiles": "COc1cccc(-c2nc(SCc3cc(=O)c4cc(Cl)ccc4[nH]3)n[nH]2)c1", "AC50": "15.8 µM [falling, partial curve]"},
      {"smiles": "CCCCC[C@H](O)/C=C\\[C@H]1[C@H](C/C=C\\CCCC(=O)O)[C@@H](O)C[C@H]1O", "note": "(tested in a mixture with another compound)", "AC50": "0.501 µM [rising, full curve]"},
      {"smiles": "Cc1ccc(S(=O)(=O)Cn2nnnc2C(c2ccccn2)N2CCN(c3ccccc3)CC2)cc1", "note": "(centres undefined)", "AC50": "39.8 µM [rising, partial curve, poor fit] [measured here: IkB-luc green channel]"},
      {"smiles": "COc1cccc(-n2nnnc2SCC(=O)N2CCCc3ccccc32)c1", "AC50": "3.98 µM [falling, full curve, poor fit]"},
      {"smiles": "Cc1cc2c(cc1S(=O)(=O)Nc1cccc(C(F)(F)F)c1)OCCN2C", "AC50": "0.794 µM [falling, full curve]"},
      {"smiles": "CC(C)Oc1ccc(CNC(=O)Cc2ccc(NC(=O)N3CCSc4ncccc43)cc2)cc1", "AC50": "15.8 µM [falling, partial curve]"},
      {"smiles": "Cc1ccc2c(c1)c(=O)c(S(=O)(=O)c1ccc(F)cc1)cn2CC(=O)Nc1ccc2c(c1)OCO2", "AC50": "6.31 µM [falling, partial curve]"},
      {"smiles": "c1ccc(CC2CCN(c3nc4ccccc4n4nnnc34)CC2)cc1", "AC50": "3.98 µM [falling, partial curve]"},
      {"smiles": "CC(C)(C)C1CCc2c(sc(NC(=O)c3ccccc3F)c2C(=O)N2CCCCC2)C1", "note": "(centres undefined)", "AC50": "25.1 µM [falling, partial curve]"},
      {"smiles": "COc1ccc(NC2=C(C)C(=O)CC2)cc1", "AC50": "20 µM [rising, partial curve] [measured here: IkB-luc green channel]"},
      {"smiles": "CCOC(=O)c1cccc(NC(=O)CC(c2ccc(F)cc2)N2Cc3ccccc3C2=O)c1", "note": "(centres undefined)", "AC50": "6.31 µM [falling, single point]"},
      {"smiles": "CCCOc1ccc(OC(=O)c2sc3ncn(Cc4cccc(F)c4)c(=O)c3c2C)cc1", "AC50": "1.26 µM [falling, full curve, poor fit]"},
      {"smiles": "CN(C(=O)c1cc2sccc2n1C)C1CCCCC1", "AC50": "10 µM [falling, partial curve]"},
      {"smiles": "COc1ccccc1Nc1nc(-c2cccs2)cs1", "AC50": "6.31 µM [falling, full curve, poor fit]"},
      {"smiles": "Cc1nc2cc(-c3cccc(F)c3)nn2c(C)c1CCC(=O)N1CCN(c2ccc(F)cc2)CC1", "AC50": "2.51 µM [falling, partial curve]"},
      {"smiles": "Cc1cccc(-c2noc(CN(C(=O)c3ccc(C)c(C)c3)C(C)C)n2)c1", "AC50": "15.8 µM [falling, partial curve]"},
      {"smiles": "Cc1csc2nc(-c3cccc(NC(=O)c4cccc(F)c4)c3)cn12", "AC50": "39.8 µM [falling, partial curve]"},
      {"smiles": "CCOc1ccc(CCNC(=O)C2=C(C)C(=O)OC23CCC(C)CC3)cc1OCC", "note": "(centres undefined)", "AC50": "3.98 µM [falling, single point]"},
      {"smiles": "O=C(CN(C(=O)c1cc2c(s1)CCC2)C1CCCC1)NCc1cccs1", "AC50": "12.6 µM [falling, partial curve]"},
      {"smiles": "Cc1ccc(C(=O)c2oc3ccccc3c2NC(=O)c2nc(S(C)(=O)=O)ncc2Cl)cc1F", "AC50": "39.8 µM [falling, single point]"},
      {"smiles": "CCOC(=O)Cn1c(=O)oc2cc(S(=O)(=O)NCc3ccc(F)cc3)ccc21", "AC50": "31.6 µM [falling, single point]"},
      {"smiles": "O=C1CC(c2ccccc2)Cc2[nH]c(=O)c(-c3nc(-c4cccc(Cl)c4)cs3)cc21", "note": "(centres undefined)", "AC50": "10 µM [falling, partial curve]"},
      {"smiles": "COc1ccc(-c2cc(C(=O)N3CCN(c4ccccc4OC)CC3)c3cc(C(C)C)ccc3n2)cc1", "AC50": "25.1 µM [falling, partial curve]"},
      {"smiles": "Cc1ccc(Cl)cc1N1CCN(C(c2ccc(F)cc2)c2nnc(-c3ccccc3)o2)CC1", "note": "(centres undefined)", "AC50": "10 µM [falling, partial curve]"},
      {"smiles": "COC(=O)c1sccc1S(=O)(=O)N1CCN(c2cccc(C)c2C)CC1", "AC50": "39.8 µM [falling, single point]"},
      {"smiles": "COCCNC(=O)C(c1ccc(C)o1)N(C(=O)c1snc(C(N)=O)c1N)c1ccc(C)cc1", "note": "(centres undefined)", "AC50": "631 nM [rising, single point] [measured here: IkB-luc green channel]"},
      {"smiles": "COc1ccc2nc(NS(=O)(=O)c3ccc(C)cc3)c(Nc3cc(Cl)ccc3OC)nc2c1", "AC50": "7.94 µM [falling, partial curve]"},
      {"smiles": "CCOc1ccc(-c2cc(CCCC(=O)Nc3cccc(OC)c3)no2)cc1", "AC50": "3.98 µM [rising, full curve] [measured here: IkB-luc green channel]"},
      {"smiles": "O=C1CCCC2=C1C1(CCCC1)N=C(Nc1nc3ccccc3o1)N2", "AC50": "2 µM [falling, full curve]"},
      {"smiles": "CCN1C(=S)SC(=O)C1=C1C=C(C)OC(C)=C1", "AC50": "0.398 µM [rising, full curve]"},
      {"smiles": "Cc1ccc(-c2cn3cccc(C)c3n2)cc1NS(=O)(=O)c1ccccc1", "AC50": "12.6 µM [falling, partial curve]"},
      {"smiles": "Cn1nc(-c2ccc(Cl)cc2)c2cc(C(=O)NCC3CCCO3)sc21", "note": "(centres undefined)", "AC50": "12.6 µM [falling, partial curve]"},
      {"smiles": "COc1cccc(-c2nnc(NC(=O)c3ccc(S(=O)(=O)N4CCOCC4)cc3)o2)c1", "AC50": "7.94 µM [falling, full curve, poor fit]"},
      {"smiles": "Cc1ccc(-c2nn3c(C)nnc3c3ccccc23)cc1S(=O)(=O)NCCO", "AC50": "10 µM [rising, partial curve] [measured here: IkB-luc green channel]"},
      {"smiles": "Cc1cccc(N(CC(=O)NC(C)c2ccccc2)S(=O)(=O)c2ccccc2)c1C", "note": "(centres undefined)", "AC50": "12.6 µM [falling, partial curve]"},
      {"smiles": "COc1ccc(S(=O)(=O)NCCSc2ccc(C)cc2)cc1OC", "AC50": "20 µM [falling, partial curve]"},
      {"smiles": "CCOc1ccc(-c2cc3c(=O)n(Cc4nc(-c5cccc(OC)c5OC)oc4C)ccn3n2)cc1Cl", "AC50": "10 µM [rising, partial curve]"},
      {"smiles": "CCC(=O)N1CCc2cc(S(=O)(=O)CCC(=O)N3CCN(c4cccc(C)c4)C(C)C3)ccc21", "note": "(centres undefined)", "AC50": "12.6 µM [falling, partial curve]"},
      {"smiles": "Cc1ccccc1Nc1c(-c2ccsc2)nc2c(C)cccn12", "AC50": "20 µM [falling, partial curve]"},
      {"smiles": "O=C(NCc1cccc(Cl)c1)c1cccn1-c1nnc(N2CCCC2)s1", "AC50": "15.8 µM [falling, partial curve]"},
      {"smiles": "O=C(CN1C(=O)NC2(CCCC2)C1=O)Nc1nc(-c2ccc(F)cc2)cs1", "AC50": "15.8 µM [falling, partial curve]"}
    ]}
  ]
}
